Test results reported in US20260002132A1, “METHOD FOR PRODUCING RENAL COLLECTING DUCT CELLS AND PELVIC EPITHELIAL CELLS” (Kyoto University, priority 2022, published 2026).
At least one compound was matched to its structure with a doubt left.

Tests used:
Type in all cases: cell-based, human
[1] = tested on: renal collecting duct principal cells; assay: Transepithelial electrical resistance (TEER) of renal collecting duct principal cells; conditions: 1 μM benzamil in lower chamber, 24 hours, continuous aldosterone
[2] = tested on: renal collecting duct principal cells; assay: ENaC-positive cell rate in renal collecting duct principal cells (immunostaining); conditions: with vs without administration of benzamil
[3] = tested on: Tet-On-ELF5-1231A3 iPS cells; assay: Forced expression of ELF5 by doxycycline (PCR, immunostaining); conditions: 4 μM doxycycline
[4] = tested on: mesonephric duct cells induced from Tet-On-ELF5-1231A3 iPS cells; assay: Mesonephric duct marker expression after doxycycline (immunostaining); conditions: 4 μM doxycycline added on Day 3 of mesonephric duct induction, 1 day
[5] = tested on: ureteric bud cells derived from Tet-On-ELF5-1231A3 iPS cells; conditions: 4 μM doxycycline in renal collecting duct progenitor cell-induction medium, without IBMX
Protocol: Ureteric bud organoids on Day 6 were prepared from the Tet-On-ELF5-1231A3 iPS cells using the method previously described (WO2021/066076). In a 1.5 mL tube, 10 ureteric bud organoids were collected and washed twice with 500 μL PBS. 100 μL Accutase was added thereto, and the mixture was incubated for 3 minutes at 37° C., 5% CO2. The ureteric bud organoids were completely transformed into single cells by pipetting, and 900 μL DMEM/10% PBS was added thereto to count cells.
To a 24-well plate (6-well, 12-well, 48-well or 96-well plate, or 6-well, 12-well, or 24-well transwell plate may also be used), the necessary amount of suspension was collected to achieve 0.25 to 1.0×10^5 cells/cm^2, and centrifuged at 300 G for 5 minutes. The cell count was preferably 1×10^5 cells/cm^2. After removing the supernatant, cells were resuspended in a medium comprising DMEM/F12 GlutaMAX+B-27 Supplement minus vitamin A having 10% FBS, 1 μM A83-01, and 1 μM IWR-1 (renal collecting duct progenitor cell-induction medium) added thereto, to which 0.125 μg/cm^2 iMatrix-511 silk and 10 μM Y-27632 were added, and the suspension was adjusted and seeded so that each well contains 500 μL of the suspension. 0.1 μM TTNPB may be further added the medium. […]

## NC(=NCc1ccccc1)NC(=O)c1nc(Cl)c(N)nc1N [benzamil]
[1]
  TEER: TEER enhancement
[2]
  ENaC-positive cell rates: did not change

## C[C@H]1c2cccc(O)c2C(=O)C2=C(O)[C@]3(O)C(=O)C(C(N)=O)=C(O)[C@@H](N(C)C)[C@@H]3[C@@H](O)[C@@H]21 [doxycycline]
[3]; Tet-On-ELF5-1231A3 iPS cells, 1 day, PCR and immunostaining
  ELF5 and mCherry expression: expressed ELF5 and mCherry
[3]; single cells from ureteric bud organoids in renal collecting duct progenitor cell-induction medium
  ELF5 and mCherry expression: expressed ELF5 and mCherry
[4]
  expression of mesonephric duct marker: did not affect the expression of mesonephric duct marker
[5]
  early appearance of AQP2-positive cells: did not contribute to the early appearance of AQP2-positive cells
